# Assay results reported in PubChem BioAssay AID2685 (National Center for Advancing Translational Sciences (NCATS), 2010).
# Hit rate of the full screen: of about 320,000 compounds, about 2,100 (0.66%) were called active. The shares of active, inactive and inconclusive entries below differ from those in the screen. The call rests on the fitted dose curve; in most records, active means well fitted inhibition curve with a large enough effect in the signal ratio, with a control signal flat (not every such curve was filed as active); inconclusive means small, poorly fitted or top-dose-only effect, or effect the other way, or a change in a side signal; inactive means flat fitted curve, though single readings scatter; the % refers to the signal ratio. Potencies of inconclusive entries are doubtful fits and often do not repeat. Where a SMILES comes first, the peptide text is derived from it.
# Assay: qHTS Assay for Lipid Storage Modulators in Drosophila S3 Cells
# Details: BODIPY lipid droplet fluorescence, 18-24 h, cells fed with added oleic acid; lipid storage change, negative = inhibition: at 46.1 µM (top of the series) unless noted
# Outline: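 Drosophila S3 cells got compounds at several concentrations plus oleic acid (400 uM solution). Laser-scanning cytometry with 488 nm excitation read lipid droplets at 500-530 nm and cells at 575-640 nm. Percent activity was relative to 20 uM Triacsin C.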
# On the % scale 0 is the no-effect control and ±100 the full control effect; potency means the concentration at half of the fitted maximal effect.
SMILES,Potency,"lipid storage change, negative = inhibition"
O=C(Nc1ccc(Oc2ccccc2)nc1)C1CCN(Cc2cccc(F)c2)CC1,"inconclusive: 29.1 µM [cytotoxic, single point]",
COCC(=O)Nc1cc(OC)c(Cl)cc1OC,"inconclusive: 29.1 µM [rising, single point]",
CS(=O)(=O)c1ccc(C(=O)NC(Cc2ccccc2)c2ccccc2)cc1 (stereo not given),"inconclusive: 14.6 µM [falling, partial curve, poor fit]",
COC(=O)c1ccc(C(=O)Nc2ccc3c(c2)C(=O)NC3=O)cc1,"inconclusive: 29.1 µM [falling, single point]",
COc1cccc(C2CC(c3cccs3)=NN2C(=O)c2ccco2)c1O (stereo not given),,inconclusive: -11.4%
O=c1cc(C(F)(F)F)nc(-c2ccccc2)[nH]1,"inconclusive: 1.3 µM [activator, full curve]",
Cc1c(Nc2nc3ccccc3nc2N2CCN(c3ccccc3)CC2)c(=O)n(-c2ccccc2)n1C,"inconclusive: 0.58 µM [activator, single point]",
COc1ccc(C)cc1N(CC(=O)N1CCCCCC1)S(=O)(=O)c1ccccc1,,inconclusive: -79.3%
CCCCC(=O)Nc1ccc2oc(-c3ccncc3)nc2c1,"inconclusive: 29.1 µM [rising, single point]",
Cc1cccc(N(CC(=O)Nc2ccc(CC#N)cc2)S(C)(=O)=O)c1,"inconclusive: 16.4 µM [cytotoxic, partial curve]",
Cc1cccc(Oc2ccc(NS(=O)(=O)c3ccc(C)c(C(=O)O)c3)cc2)c1,,inconclusive: -47.2%
COc1cccc(C2C(C(=O)OC(C)C)=C(C)N=c3s/c(=C\c4ccc(C(=O)O)cc4)c(=O)n32)c1 (stereo not given),,inconclusive: 287%
O=C(CN1C(=O)CSc2ncccc21)NCCN1CCOCC1,,inconclusive: 8.82%
C/C(N)=C(/C#N)C(=O)CSc1nncn1-c1ccccc1,,inconclusive: 6.49%
CCc1cccc2c(C(=O)CN3C(=O)N(C)C4(CCCCC4)C3=O)c[nH]c12,,inconclusive: -31.5%
CCCCC(=O)Nc1cc(C)c(NC(=O)c2cccs2)cn1,"inconclusive: 32.6 µM [falling, partial curve]",
CCSC1=N/C(=C\c2ccc(C(=O)O)cc2)C(=O)S1,,inconclusive: -37.7%
Cc1cccc(NS(=O)(=O)c2cccc(C(=O)N3CCN(c4ccccn4)CC3)c2)c1,"inconclusive: 11.2 µM [falling, partial curve, poor fit]",
O=C(Nc1cccc(S(=O)(=O)N2CCCCCC2)c1)c1cc(=O)c2ccccc2o1,,inconclusive: -29.2%
O=C(COC(=O)C1COc2ccccc2O1)Nc1ccc2c(c1)CCC2 (stereo not given),,inconclusive: -34.6%
Cc1ccccc1NC(=O)CN1C(=O)C2C3CC(C(Br)C3Br)C2C1=O (stereo not given),,inconclusive: 6.02%
CCOc1ccc(C(=O)CCC(=O)Nc2ccccc2C)cc1,,inconclusive: -14.5%
COc1ccc2c(c1)c(N=O)c(O)n2C,,inconclusive: -1.27%
CCOc1ccc(N(CC(=O)NCc2ccc(C)cc2)S(=O)(=O)c2c(C)[nH]c(=O)[nH]c2=O)cc1,"inconclusive: 3.66 µM [falling, single point]",
Cc1ccc(C2C(C(=O)c3sc(C)nc3C)=C(O)C(=O)N2CCCN(C)C)o1 (stereo not given),,inconclusive: 55.9%

SMILES,Potency,"lipid storage change, negative = inhibition"
CCS(=O)(=O)N1CCCC(C(=O)c2ccc(OC)cc2C)C1 (stereo not given),,inconclusive: -9.91%
CCOc1cc(CNCCN2CCOCC2)ccc1OCc1ccccc1Cl,,inconclusive: 33.4%
COC(=O)C(CC(C)C)NC(=O)C(N)Cc1ccccc1 (stereo not drawn) (H-Phe-Leu-OMe; configuration not given here),,inconclusive: 20.4%
O=C(CCc1ccccc1)NC1(Cc2ccccc2)CCN(CCc2cccs2)C1=O (stereo not given),"inconclusive: 6.51 µM [falling, single point]",
CC(C)N(CCNC(=O)c1cn(C)c2ccc(S(=O)(=O)N(C)C)cc2c1=O)Cc1ccccc1,,inconclusive: -16.2%
COc1ccc(CCN(C)C(=O)CSc2nnc(C3CC3)n2N)cc1OC,,inconclusive: -7.6%
Cc1ccc(NC(=O)CCC(=O)n2nc(C)cc2C)c(C)c1,active: 18.4 µM,
O=C1CCN(C(=O)Nc2cccc(Cl)c2)N1,,inconclusive: 9%
Fc1ccc(CNC(=S)Nc2ccccc2F)cc1,,inconclusive: -69.4%
COc1ccc(NC(=O)N2CCCc3cc(C)ccc32)c(OC)c1,"inconclusive: 29.1 µM [activator, single point]",
CCCc1nnc(NS(=O)(=O)c2ccccc2)s1,,inconclusive: -21.9%
CC(C)CNS(=O)(=O)c1ccc(S(=O)(=O)N2CCC3(CC2)OCCO3)cc1,,inconclusive: 24.6%
CCC(=O)Nc1ccc(Cl)c(NC(=S)NC(C)=O)c1,,inconclusive: 45.4%
O=C1CC(C(=O)N2CCN(c3ccc(F)cc3)CC2)CN1CCc1ccccc1 (stereo not given),,inconclusive: 58.4%
CCOc1cc(C(=O)N/N=C\c2cn(CC)nc2C)cc(OCC)c1OCC,,inconclusive: 24.2%
CCn1c2ccccc2c2nc3cc(C(=O)O)ccc3nc21,active: 0.58 µM,
CCOc1ccc(NC(=O)CSc2nncc(=O)[nH]2)cc1,"inconclusive: 6.51 µM [falling, single point]",
O=C(C1CCN(c2nnnn2-c2ccccc2)CC1)N1CCN(c2ccccc2)CC1,,inconclusive: 6.25%
CC(C)(C)c1cc(CNC2CS(=O)(=O)C[C@@H]2O)cc(C(C)(C)C)c1O (stereo not given in full),,inconclusive: 18.5%
CC(C#N)Sc1ncnc2sc(-c3ccccc3)cc12 (stereo not given),"inconclusive: 25.9 µM [falling, partial curve, poor fit]",
CN(C)c1nc(NCc2ccccc2)nc(SCC(=O)Nc2ccccc2Cl)n1,"inconclusive: 3.26 µM [rising, single point]",
COCC(=O)/C=C1\Sc2ccccc2N1C,"inconclusive: 6.51 µM [activator, single point]",
CCOc1ccccc1NC(=O)C1CCCN(C(=O)Nc2ccccc2)C1 (stereo not given),"inconclusive: 16.4 µM [cytotoxic, partial curve]",
COC(=O)C1=C(C)NC(=O)/C1=C\c1cc(C)n(-c2ccccc2)c1C,,inconclusive: 1.4%
O=C(Nc1cccc(S(=O)(=O)N2CCCC2)c1)c1cccc(S(=O)(=O)N2CCOCC2)c1,active: 1.84 µM,

SMILES,Potency,"lipid storage change, negative = inhibition"
C=CCN(CC=C)Cc1cc(=O)n2c(-c3ccccc3)csc2n1,,inconclusive: -32%
CC(=O)N1CCN(CCN=CC2=C(O)CC(c3ccco3)CC2=O)CC1 (stereo not given),,inconclusive: -10.7%
O=C(CCn1nnc2ccccc21)Nc1nnc(Cc2ccc(F)cc2)s1,"inconclusive: 6.51 µM [activator, partial curve, poor fit]",
CCOC(=O)C1=C(O)/C(=C/c2cc(OC)c(O)c(OC)c2)SC1=Nc1ccc(OC)cc1,"inconclusive: 2.06 µM [falling, full curve, poor fit]",
O=C(Nc1ccc2[nH]ccc2c1)c1cccs1,,inconclusive: 14.2%
O=C(COc1ccc2ccccc2c1)NNC(=O)Cc1ccccc1,,inconclusive: 2.71%
COc1ccc(C(=O)COC(=O)c2ccc(N(C)C)cc2)cc1,,inconclusive: 23.7%
Cc1cccn2c(=O)c3cc(C(=O)NCc4ccco4)c(=N)n(C4CCCC4)c3nc12,"inconclusive: 0.103 µM [falling, partial curve, poor fit]",
O=C(Nc1ccc(F)cc1)NC1CCN(Cc2c(F)cccc2Cl)CC1,,inconclusive: -0.583%
CCCC(=N)C1=C(O)CC(CC(C)SCC)CC1=O (stereo not given),,inconclusive: 20.2%
CC(=O)c1cccc(NC(=O)N2CCCC2C(=O)Nc2cccc(C)c2C)c1 (stereo not given),"inconclusive: 29.1 µM [activator, single point]",
CC(C)(C)C(=O)NCc1ccc(C(=O)CSc2nnc(-c3ccncc3)n2C2CC2)s1,,inconclusive
CC(=Nc1ccc(O)cc1)c1sc2ccccc2c1O,,inactive: 4.99%
[O-]/C(=C(\C(=S)NCCN1CCOCC1)[n+]1ccccc1)c1ccc(Cl)s1,,inconclusive: 6.31%
CC(C)(C)OC(=O)NCCCCCNC(=O)c1[nH]cnc1C(=O)Nc1ccon1,,inconclusive: 5%
COc1cc2cc3c(N)c(C(=O)NCc4ccco4)sc3nc2cc1OC,"inconclusive: 2.59 µM [activator, partial curve]",
CCOC(=O)c1sc(NC(=O)c2ccccc2C(=O)O)c(C(=O)OCC)c1C,,inactive: 9%
CCC(C(=O)NCC1CCCO1)N(Cc1ccccc1)C(=O)CNS(=O)(=O)c1ccccc1 (stereo not given),"inconclusive: 0.206 µM [activator, full curve, poor fit]",
CCCCNC(=O)OCCNC(=O)Oc1cccc(C)c1,,inconclusive: -9.57%
O=C(Cn1nc(-c2ccccc2)ccc1=O)Nc1ccc(N2CCN(C(=O)c3cccs3)CC2)cc1,,inconclusive: 33.9%
O=c1oc2ccccc2c(Nc2ccc3ncccc3c2)c1[N+](=O)[O-],"inconclusive: 5.17 µM [activator, partial curve]",
CCN(C(=O)C(C)Sc1ccc(S(=O)(=O)N2CCN(C)CC2)cn1)c1ccccc1 (stereo not given),,inconclusive: 7.88%
COC(C(=O)N/N=C(\C)c1ccc(C(C)(C)C)cc1)c1ccccc1 (stereo not given),"inconclusive: 6.51 µM [falling, full curve]",
O=C(c1ccccc1)N1N=C(c2ccccc2O)CC1c1ccccc1 (stereo not given),,inconclusive: 18.1%
O=C(CN1CCN(Cc2ccc3c(c2)OCO3)CC1)Nc1ccc(N2CCOCC2)cc1,,inconclusive: 10.7%

# Four entries from above, bar-delimited.
SMILES | Potency | lipid storage change, negative = inhibition
CCSC1=N/C(=C\c2ccc(C(=O)O)cc2)C(=O)S1 |  | inconclusive: -37.7%
Cc1cccc(NS(=O)(=O)c2cccc(C(=O)N3CCN(c4ccccn4)CC3)c2)c1 | inconclusive: 11.2 µM [falling, partial curve, poor fit] | 
O=C(Nc1cccc(S(=O)(=O)N2CCCCCC2)c1)c1cc(=O)c2ccccc2o1 |  | inconclusive: -29.2%
O=C(COC(=O)C1COc2ccccc2O1)Nc1ccc2c(c1)CCC2 (stereo not given) |  | inconclusive: -34.6%
